The values that follow come from publication PMC5446404.

Chains of the proteins cited; added tags and fusions are not shown. Residues count along the entry.
UniProt P02769, residues 25-607: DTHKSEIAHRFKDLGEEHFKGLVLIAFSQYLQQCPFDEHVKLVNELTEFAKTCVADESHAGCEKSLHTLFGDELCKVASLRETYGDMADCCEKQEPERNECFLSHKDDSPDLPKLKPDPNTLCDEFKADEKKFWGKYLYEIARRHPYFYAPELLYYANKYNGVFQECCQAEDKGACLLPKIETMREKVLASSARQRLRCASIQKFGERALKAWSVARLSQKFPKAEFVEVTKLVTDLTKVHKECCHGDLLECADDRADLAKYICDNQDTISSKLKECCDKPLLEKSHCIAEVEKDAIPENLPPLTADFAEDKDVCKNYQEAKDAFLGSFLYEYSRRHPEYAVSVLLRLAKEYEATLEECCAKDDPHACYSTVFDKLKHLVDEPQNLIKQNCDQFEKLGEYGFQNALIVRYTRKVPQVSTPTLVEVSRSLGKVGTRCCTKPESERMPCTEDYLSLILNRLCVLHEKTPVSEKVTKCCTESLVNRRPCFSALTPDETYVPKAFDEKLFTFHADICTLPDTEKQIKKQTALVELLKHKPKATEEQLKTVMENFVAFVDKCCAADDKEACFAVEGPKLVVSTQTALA
UniProt O75460, residues 401-500: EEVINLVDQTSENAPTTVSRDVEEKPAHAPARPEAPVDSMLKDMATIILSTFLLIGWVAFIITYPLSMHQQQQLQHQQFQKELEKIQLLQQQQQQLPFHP

This experiment deals with T1, recombinant human fortilin (Strep-tag II), biotinylated (human) (UniProt P13693).
T1 sequence (chain, biotinylated (sites not stated)): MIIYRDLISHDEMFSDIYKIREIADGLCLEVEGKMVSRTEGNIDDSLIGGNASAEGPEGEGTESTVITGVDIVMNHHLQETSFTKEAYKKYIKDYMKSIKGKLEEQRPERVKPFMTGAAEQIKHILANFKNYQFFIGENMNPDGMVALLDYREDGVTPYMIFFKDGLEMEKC
In words: BLI; BLItz (ForteBio); biotinylated fortilin immobilised on streptavidin-coated biosensors (25 μg/mL, 600 s), buffer exchange in PBS; analyte at various concentrations for 180 s, dissociation in PBS for 300 s; three independent experiments; both purified.

Results are given in words; binding and its absence hold for the method and conditions named. Tags and fused reporters may be left off the sequences shown.

Take “bovine serum albumin (from UniProt P02769 25-607)”: the binding result is “no binding”. For the substance “GST-IRE1α-TM (aa 401-500) (from UniProt O75460 401-500) (domain or fragment)”, the binding result was “no binding”.
